Results from one PubChem assay

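GFP-tagged normal-ribosome E. coli mixed with an RFP-tagged h34 humanized strain, with green signal taken as growth after 24 hours.
The value is the change in activity at the highest dose tested; more negative means stronger inhibition.
Active requires GFP to fall at least twice as much as RFP with growth loss below a set limit; inconclusive means no clear call; everything else is inactive.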

Only part of the assay is shown, chiefly results filed as inconclusive.

compound	condition	activity change	filed as
O=C(Nc1ccc(C(F)(F)F)cc1)C1CCN(c2cnccn2)CC1	at 50 µM (top of the series)	22.05	inconclusive
COc1ccc(NC(=O)Nc2cccc3c2O[C@H](CN(C)S(=O)(=O)c2ccc(Cl)cc2)[C@@H](C)CN([C@H](C)CO)C3=O)cc1	at 50 µM (top of the series)	9.325	inconclusive
CC1CCCCN1CC(O)COCCC12CC3CC(CC(C3)C1)C2 (stereo unspecified)	at 50 µM (top of the series)	1.913	inconclusive
COc1ccccc1NS(=O)(=O)c1cc(NC(=O)CNC(=O)c2ccccc2)ccc1C	at 50 µM (top of the series)	14.68	inconclusive
CCOC(=O)c1csc(NC(=O)CC2CCCC2)n1	at 50 µM (top of the series)	15.4	inconclusive
Cc1nc(Nc2ccccc2)sc1C(=O)Nc1ccccc1	at 50 µM (top of the series)	0.083	inconclusive
CC(=O)c1ccc(Sc2ccccc2N)c([N+](=O)[O-])c1	at 50 µM (top of the series)	-15.66	inconclusive
COc1ccc([C@H]2C[C@H](O)C[C@@H](CCn3cc(-c4ccccc4)nn3)O2)cc1	at 50 µM (top of the series)	-4.857	inconclusive
C=CCn1c(C)cc(C(=O)CSc2nnc(C3CC3)n2C2CC2)c1C	at 50 µM (top of the series)	11.23	inactive
CCOc1ncccc1C(=O)OCC(=O)NCCCc1ccccc1	at 50 µM (top of the series)	-0.736	inconclusive
O=C(Cn1cc(COc2c(F)c(F)cc(F)c2F)nn1)c1ccc(O)cc1	at 50 µM (top of the series)	17.19	inconclusive
CCOC(=O)c1nc(C)sc1-c1ccnn1S(=O)(=O)c1ccc(C)cc1	at 50 µM (top of the series)	-12.73	inconclusive
Cc1noc(C)c1NC(=O)Nc1ccc2c(c1)C(=O)N([C@H](C)CO)C[C@H](C)[C@H](CN(C)C(=O)Nc1ccc3c(c1)OCO3)OCCCC[C@@H](C)O2	at 50 µM (top of the series)	25.07	inconclusive
Cc1cc(Br)cn2c(Cc3cccc(Cl)c3)c(-c3ccco3)nc12	at 50 µM (top of the series)	18.03	inconclusive
CS(=O)(=O)c1ccc(Cl)c(NC(=O)CSc2nncn2-c2ccccc2)c1	at 50 µM (top of the series)	30.73	inconclusive
CCOc1ccc(OCc2ccc(C(=O)N3CCCC3)o2)cc1	at 50 µM (top of the series)	22.83	inconclusive
COC(=O)c1ccc2nc(-c3ccc(F)cc3)c(Cc3cccc(F)c3)n2c1	at 50 µM (top of the series)	30.61	inconclusive
C[C@H]1CCCCO[C@H](CN(C)C)[C@@H](C)CN([C@@H](C)CO)C(=O)c2cc(NC(=O)Nc3cccc4ccccc34)ccc2O1	at 50 µM (top of the series)	28.71	inconclusive
O=c1[nH]c2cc([N+](=O)[O-])ccc2c2ccccc12	at 50 µM (top of the series)	27.78	inconclusive
O=S1(=O)c2ccc(Br)cc2OCCC2CCCCN21 (stereo unspecified)	at 50 µM (top of the series)	10.67	inconclusive
CC(C)(C)CC(=O)Nc1ccccc1N1CCN(c2ccccc2)CC1	at 50 µM (top of the series)	5.461	inconclusive
Cc1ccccc1CSc1nnc(-c2ccccn2)n1C	at 50 µM (top of the series)	9.401	inconclusive
CCC[N+]1(CC#CC(O)(c2ccccc2)C2CCCCC2)CCCCC1 (stereo unspecified)	at 50 µM (top of the series)	16.7	inconclusive
CCOc1ccc(CCNC(=O)CN2C(=O)CCSc3ccccc32)cc1	at 50 µM (top of the series)	-9.055	inconclusive
C=C1CCC(N(O)c2cc(C)on2)C(=C)CCC2C1CC2(C)C (stereo unspecified)	at 50 µM (top of the series)	32.63	inconclusive
COc1cc(C2CC(=O)Oc3cc(C)cc(C)c32)cc(OC)c1OC (stereo unspecified)	at 50 µM (top of the series)	12.34	inconclusive
O=C(Nc1cc(S(=O)(=O)N2CCCCC2)ccc1N1CCCCC1)C1CC1	at 50 µM (top of the series)	16.59	inactive
O=[N+]([O-])c1ccc(/C=C/c2ccc3cccc([N+](=O)[O-])c3n2)cc1	at 50 µM (top of the series)	10.99	inactive
Cc1ccc(-n2c(SCC(N)=O)nnc2-c2cnccn2)cc1	at 50 µM (top of the series)	19.62	inconclusive
O=C(O)c1ccc(Cl)c(S(=O)(=O)Nc2ccccc2Cc2ccccc2)c1	at 50 µM (top of the series)	-37.76	inconclusive
O=C1C(c2ccccc2)c2ccccc2N1Cc1ccccc1 (stereo unspecified)	at 50 µM (top of the series)	-31.21	inconclusive
O=C(Nc1ccc(Cl)c(Cl)c1)N[C@H]1CC[C@@H](CCn2cc(C3CCCCC3)nn2)O[C@@H]1CO	at 50 µM (top of the series)	-58.53	inconclusive
Cc1c(Cc2ccccc2)sc(NC(=O)Cc2ccccc2)c1C(N)=O	at 50 µM (top of the series)	12.95	inconclusive
O=C1CCCCC1Nc1ccc(Br)cc1 (stereo unspecified)	at 50 µM (top of the series)	14.48	inconclusive
CCOC(=O)c1c(NC(=O)CN2CCC(C)CC2)sc(C)c1C	at 50 µM (top of the series)	-1.523	inconclusive
COc1ccccc1-c1nnc(C2CCN(S(=O)(=O)c3cccc([N+](=O)[O-])c3)CC2)o1	at 50 µM (top of the series)	-2.068	inconclusive
COc1cccc(S(=O)(=O)N2CCCCN3[C@H](CO)[C@@H](c4ccc(C#CC(C)C)cc4)[C@@H]3C2)c1	at 50 µM (top of the series)	13.94	inconclusive
COc1cccc(CNC(=O)CCSCc2ccccc2F)c1	at 50 µM (top of the series)	12.48	inconclusive
CCN(c1ccccc1)S(=O)(=O)c1ccc(OC)c(NC(=O)C2CC(=O)N(Cc3ccccc3)C2)c1 (stereo unspecified)	at 50 µM (top of the series)	-21.39	inconclusive
NC(=O)C1CCN(c2cc(Cl)ccc2[N+](=O)[O-])CC1	at 50 µM (top of the series)	9.972	inactive
Cn1c(CC2C(=O)Nc3ccc(Br)cc32)nc2ccccc2c1=O (stereo unspecified)	at 50 µM (top of the series)	25.45	inconclusive
O=C(Cn1c(CO)nc2ccccc21)NCCc1ccc(F)cc1	at 50 µM (top of the series)	13.45	inconclusive
Cn1ccc2cc(-c3ccc4ncnc(NCc5cccs5)c4c3)ccc21	at 50 µM (top of the series)	18.52	inconclusive
OCCN(Cc1ccccc1)Cc1ccc(Cl)cc1	at 50 µM (top of the series)	-4.205	inactive
CC[N+](CC)(CC#Cc1ccccc1)CC(=O)c1ccc(Cl)cc1	at 50 µM (top of the series)	3.096	inconclusive
O=C(C[C@H]1CC[C@H]2[C@@H](COC[C@@H](O)CN2C(=O)Nc2ccc(Cl)cc2)O1)N1CCCCC1	at 50 µM (top of the series)	-70.21	inconclusive

From PubChem BioAssay record AID977624 (Broad Institute, 2014).